Here are results for one molecule from article PMC11817884.

In this assay the target is T1, Heme oxygenase 1 (mouse (endogenous in Townes SS mouse liver)) (UniProt P14901).
T1 sequence: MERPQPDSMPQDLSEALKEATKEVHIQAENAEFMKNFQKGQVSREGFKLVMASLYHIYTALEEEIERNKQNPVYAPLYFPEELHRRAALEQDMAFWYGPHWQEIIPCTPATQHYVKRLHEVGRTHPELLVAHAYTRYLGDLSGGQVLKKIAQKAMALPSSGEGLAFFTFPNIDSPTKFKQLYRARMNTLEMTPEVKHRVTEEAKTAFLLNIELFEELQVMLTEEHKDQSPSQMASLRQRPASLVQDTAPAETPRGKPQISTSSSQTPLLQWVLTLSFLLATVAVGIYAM
The assay is described as follows: co-IP; anti-HO-1 cross-linked (DSS) to Protein A/G Plus agarose (Pierce Crosslink IP kit); precleared SS mouse liver lysate, overnight at 4 °C; eluate analysed by immunoblotting; normal mouse IgG as control; livers at baseline and after oxy-Hb treatment of the mice.

No constants are given. Whether binding was seen depends on the method and setting. In cells and extracts the contact can be indirect. Some entries that bind do so weakly or less than the wild type.

B1: Cytochrome P450 3a11 (enzyme, UniProt Q64459 1-504)
chain: MDLVSALSLETWVLLAISLVLLYRYGTRKHELFKKQGIPGPKPLPFLGTVLNYYKGLWKFDMECYKKYGKTWGLFDGQTPLLAVTDPETIKNVLVKECFSVFTNRRDFGPVGIMSKAISISKDDEWKRYRALLSPTFTSGKLKEMFPVIEQYGDILVKYLRQKAKKGKPVTMKDVLGAYSMDVITSTSFGVNVDSLNNPEDPFVEKAKKLLRFDFFDPLLFSVVLFPFLTPVYEMLNICMFPKDSIEFFKKFVDRMKESRLDSKQKHRVDFLQLMMNSHNNSKDKVSHKALSDMEITAQSIIFIFAGYETTSSTLSFTLHSLATHPDIQKKLQDEIDEALPNKAPPTYDTVMEMEYLDMVLNETLRLYPIANRLERVCKKDVELNGVYIPKGSTVMIPSYALHHDPQHWSEPEEFQPERFSKENKGSIDPYVYLPFGNGPRNCLGMRFALMNMKLALTKIMQNFSFQPCKETQIPLKLSRQGLLQPEKPIVLKVVPRDAVITGA
As to B1, the binding result is listed as “binds”.
